Assay results reported in paper doi:10.1101/545400.
These are yes or no findings as the source states them, for the method shown. In cells and extracts the contact can be indirect. A yes stands for co-enrichment or nearness to the bait. Other partners may have been found.

The chains behind the UniProt entries cited, without tags or fusion partners.
UniProt O43353: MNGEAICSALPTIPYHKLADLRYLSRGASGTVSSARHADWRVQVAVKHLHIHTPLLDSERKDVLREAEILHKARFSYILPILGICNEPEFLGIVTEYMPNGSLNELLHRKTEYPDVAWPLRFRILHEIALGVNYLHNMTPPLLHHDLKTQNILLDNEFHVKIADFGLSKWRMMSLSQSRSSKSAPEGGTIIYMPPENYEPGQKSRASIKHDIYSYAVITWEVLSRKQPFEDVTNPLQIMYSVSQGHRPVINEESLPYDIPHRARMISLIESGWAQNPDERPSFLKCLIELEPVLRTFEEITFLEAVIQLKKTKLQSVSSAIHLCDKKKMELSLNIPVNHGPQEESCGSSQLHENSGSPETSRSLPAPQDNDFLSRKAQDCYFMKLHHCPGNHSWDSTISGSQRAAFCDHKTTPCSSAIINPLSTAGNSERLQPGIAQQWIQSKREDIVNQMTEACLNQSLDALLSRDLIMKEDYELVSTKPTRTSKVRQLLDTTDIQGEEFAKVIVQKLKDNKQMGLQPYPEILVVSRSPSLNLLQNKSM
UniProt P31946: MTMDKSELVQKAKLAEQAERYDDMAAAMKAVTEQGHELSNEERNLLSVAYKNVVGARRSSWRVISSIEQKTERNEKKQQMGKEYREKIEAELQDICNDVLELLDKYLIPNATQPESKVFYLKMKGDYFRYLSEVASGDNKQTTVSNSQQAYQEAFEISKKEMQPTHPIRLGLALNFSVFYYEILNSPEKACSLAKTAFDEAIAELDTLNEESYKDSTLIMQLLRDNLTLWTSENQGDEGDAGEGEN
UniProt P62258: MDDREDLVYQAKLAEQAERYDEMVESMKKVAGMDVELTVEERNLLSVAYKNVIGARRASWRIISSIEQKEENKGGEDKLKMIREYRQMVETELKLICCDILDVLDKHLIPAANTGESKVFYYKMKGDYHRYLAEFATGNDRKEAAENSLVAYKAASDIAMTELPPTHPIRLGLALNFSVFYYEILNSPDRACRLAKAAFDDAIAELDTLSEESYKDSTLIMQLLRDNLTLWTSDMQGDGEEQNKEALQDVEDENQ
UniProt P63104: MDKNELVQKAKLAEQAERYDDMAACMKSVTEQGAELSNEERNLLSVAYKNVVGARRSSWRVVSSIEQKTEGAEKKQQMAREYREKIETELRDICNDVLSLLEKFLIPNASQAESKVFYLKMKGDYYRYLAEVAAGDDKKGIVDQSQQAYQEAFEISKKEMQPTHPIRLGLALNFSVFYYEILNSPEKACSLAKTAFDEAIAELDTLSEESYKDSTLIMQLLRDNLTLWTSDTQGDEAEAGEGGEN

B1: Erlin-2 (protein, UniProt O94905 1-339)
chain: MAQLGAVVAVASSFFCASLFSAVHKIEEGHIGVYYRGGALLTSTSGPGFHLMLPFITSYKSVQTTLQTDEVKNVPCGTSGGVMIYFDRIEVVNFLVPNAVYDIVKNYTADYDKALIFNKIHHELNQFCSVHTLQEVYIELFDQIDENLKLALQQDLTSMAPGLVIQAVRVTKPNIPEAIRRNYELMESEKTKLLIAAQKQKVVEKEAETERKKALIEAEKVAQVAEITYGQKVMEKETEKKISEIEDAAFLAREKAKADAECYTAMKIAEANKLKLTPEYLQLMKYKAIASNSKIYFGKDIPNMFMDSAGSVSKQFEGLADKLSFGLEDEPLETATKEN
B2: Erlin-1 (protein, UniProt O75477 1-348)
chain: MNMTQARVLVAAVVGLVAVLLYASIHKIEEGHLAVYYRGGALLTSPSGPGYHIMLPFITTFRSVQTTLQTDEVKNVPCGTSGGVMIYIDRIEVVNMLAPYAVFDIVRNYTADYDKTLIFNKIHHELNQFCSAHTLQEVYIELFDQIDENLKQALQKDLNLMAPGLTIQAVRVTKPKIPEAIRRNFELMEAEKTKLLIAAQKQKVVEKEAETERKKAVIEAEKIAQVAKIRFQQKVMEKETEKRISEIEDAAFLAREKAKADAEYYAAHKYATSNKHKLTPEYLELKKYQAIASNSKIYFGSNIPNMFVDSSCALKYSDIRTGRESSLPSKEALEPSGENVIQNKESTG
B3: 14-3-3γ (endogenous) (protein, UniProt P61981 1-247)
chain: MVDREQLVQKARLAEQAERYDDMAAAMKNVTELNEPLSNEERNLLSVAYKNVVGARRSSWRVISSIEQKTSADGNEKKIEMVRAYREKIEKELEAVCQDVLSLLDNYLIKNCSETQYESKVFYLKMKGDYYRYLAEVATGEKRATVVESSEKAYSEAHEISKEHMQPTHPIRLGLALNYSVFYYEIQNAPEQACHLAKTAFDDAIAELDTLNEDSYKDSTLIMQLLRDNLTLWTSDQQDDDGGEGNN

Each molecule was assayed against EGFP-RIPK2 (receptor interacting serine/threonine kinase 2) (human) (UniProt O43353) (assay: affinity purification with mass spectrometry).

Q: With “14-3-3β (endogenous) (from UniProt P31946 1-246)” as the molecule, how does the binding read?
A: Its binding is “binds”.

Q: For “14-3-3ε (endogenous) (from UniProt P62258 1-255)”, which binding is on record?
A: Its binding is “binds”.

Q: For “14-3-3ζ (endogenous) (from UniProt P63104 1-245)”, which binding is on record?
A: Its binding is “binds”.

Q: Which binding does the source give for B1 here?
A: The binding was “binds”.

Q: With B2 as the molecule, how does the binding read?
A: Its binding is “binds”.

Q: How did the binding turn out when B3 was run?
A: The binding was “binds”.
